Our source for the binding values is publication PMC11849937.

Amino acid sequences for entries named in this document (tags omitted).
UniProt Q8N8Y2: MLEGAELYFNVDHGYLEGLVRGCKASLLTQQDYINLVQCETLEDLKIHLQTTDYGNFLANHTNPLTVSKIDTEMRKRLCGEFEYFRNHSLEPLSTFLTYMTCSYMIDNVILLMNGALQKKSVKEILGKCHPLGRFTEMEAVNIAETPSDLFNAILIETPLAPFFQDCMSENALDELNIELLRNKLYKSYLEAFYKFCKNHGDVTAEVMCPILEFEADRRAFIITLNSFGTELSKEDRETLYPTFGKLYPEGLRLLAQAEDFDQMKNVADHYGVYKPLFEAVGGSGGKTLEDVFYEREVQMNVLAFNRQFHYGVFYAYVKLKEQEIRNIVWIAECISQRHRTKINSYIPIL
UniProt P51149: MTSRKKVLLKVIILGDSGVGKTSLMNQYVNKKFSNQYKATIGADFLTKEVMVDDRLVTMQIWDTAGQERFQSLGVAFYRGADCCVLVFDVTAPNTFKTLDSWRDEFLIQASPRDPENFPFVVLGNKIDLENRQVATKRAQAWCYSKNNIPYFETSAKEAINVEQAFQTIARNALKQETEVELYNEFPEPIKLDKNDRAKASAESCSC

No constants are given. Whether binding was seen depends on the method and setting. In cells and extracts the contact can be indirect. A yes stands for co-enrichment or nearness to the bait. Other partners may have been found.

This assay has as its target Flag-tagged ATP6V0D2 (ATPase H+ transporting V0 subunit d2) (UniProt Q8N8Y2). In words: affinity purification with mass spectrometry; proteins pulled down by FLAG-tagged ATP6V0D2 from 786O cells, mass spectrometry (Q Exactive HF).

Consider “RAB7 (endogenous) (from UniProt P51149 1-207)”, for which the binding entry was “binds”.
